Experimental data: the supplement of paper PMC10689618
The list shows a part of the results. Many values rest on one well or one pass, so single values are uncertain.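 Primary human fetal astrocytes engulfed labelled rat cortical synaptosomes, measured as a red/green ratio corrected for calcein live-cell signal and scaled to the plate median. Toxicity meant calcein falling over 30%; decreased phagocytosis meant below 70% of median above 5 µM.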

What was measured:
Human fetal astrocytes [1] = test: loss of total cells relative to no-compound high-control median (toxicity); higher = more toxic (fewer cells); conditions: 24 h
Human fetal astrocytes [2] = test: synaptosome phagocytosis (pHrodo/calcein intensity ratio) relative to plate median of data wells; higher = more phagocytosis; conditions: 24 h

| Compound | loss of total cells (Human fetal astrocytes [1]; 1.39 µM) | loss of total cells (Human fetal astrocytes [1]; 2.78 µM) | loss of total cells (Human fetal astrocytes [1]; 5.56 µM) | loss of total cells (Human fetal astrocytes [1]; 11.11 µM) | loss of total cells (Human fetal astrocytes [1]; 22.22 µM) | synaptosome phagocytosis (Human fetal astrocytes [2]; 1.39 µM) | synaptosome phagocytosis (Human fetal astrocytes [2]; 2.78 µM) | synaptosome phagocytosis (Human fetal astrocytes [2]; 5.56 µM) | synaptosome phagocytosis (Human fetal astrocytes [2]; 11.11 µM) | synaptosome phagocytosis (Human fetal astrocytes [2]; 22.22 µM) |
| --- | --- | --- | --- | --- | --- | --- | --- | --- | --- | --- |
| Cc1c(S(=O)(=O)O)oc2c1C(=O)C(=O)c1c-2ccc2c1CCCC2(C)C | -13.9% | -2.5% | 6.6% | 18.2% | 22.2% | 105% | 94.6% | 122% | 116% | 121% |
| CC1CC(OC(=O)c2ccccc2O)CC(C)(C)C1 (stereo not given) | -10.8% | -3.4% | -13.5% | -35.2% | 6.8% | 121% | 103% | 85.7% | 135% | 118% |
| COc1ccc2c(c1)CC[C@@H]1[C@@H]2CC[C@]2(C)[C@@H](O)CC[C@@H]12 | 4.7% | -4.7% | -10.9% | -5.4% | 4.5% | 90.6% | 27.7% | 57.9% | 97.9% | 73.2% |
| O=C(O)[C@H]1/C(=C/CO)O[C@@H]2CC(=O)N21 | -28.2% | -30.2% | 11.8% | 23.9% | 2.8% | 87.4% | 111% | 123% | 107% | 103% |
| COC(=O)CC[C@@H](C)[C@H]1CC[C@H]2[C@@H]3[C@H](O)C[C@@H]4C[C@H](O)CC[C@]4(C)[C@H]3C[C@H](O)[C@]12C | -8.2% | -17% | 1.5% | 20.9% | 6.7% | 120% | 98.9% | 90% | 141% | 137% |
| O=C(OOC(=O)c1ccccc1)c1ccccc1 | -22.6% | -33.3% | -9.3% | -22% | 2.2% | 88.5% | 109% | 108% | 80.2% | 87.7% |
| COc1ccc(-c2coc3cc(O)ccc3c2=O)cc1 | 37.3% | 20.6% | 2.3% | 33.5% | -5.6% | 124% | 113% | 74.4% | 105% | 83.6% |
| CN/C(=N\CCSCc1nc[nH]c1C)NC#N | 15.7% | -35.6% | -20.2% | 8.9% | -7% | 113% | 103% | 97.1% | 120% | 91% |
| S=c1[nH]cnc2nc[nH]c12 | 2.1% | 1.7% | 3.5% | 9.5% | -17.9% | 111% | 98.9% | 61.4% | 97.9% | 81.4% |
| CC1(C)C[C@@H]2C(=O)CC[C@H]3O[C@]3(C)CC[C@H]21 | 35.9% | 6% | -6.9% | 40.6% | 3.3% | 128% | 103% | 51.9% | 116% | 85.5% |
| CCN(CC)CCNC(=O)c1cc(Br)c(N)cc1OC | 12.6% | 9.7% | 15.9% | 8.8% | 9.1% | 97.3% | 109% | 99.3% | 109% | 95.3% |
| O=c1cc(-c2ccc(O)cc2)oc2cc(O)ccc12 | -16.4% | -9.7% | -7.3% | 1.4% | 0% | 99.6% | 106% | 91% | 111% | 89.3% |
| CN(C)c1nc(N(C)C)nc(N(C)C)n1 [Altretamine] | -8.9% | -16.7% | 11.8% | 12.1% | -12.8% | 117% | 93.1% | 136% | 82.1% | 93.4% |
| CC(=O)O[C@H]1C[C@@H](OC(C)=O)C(C)(C)[C@@H]2C[C@@H](OC(C)=O)[C@]3(C)[C@H](CC[C@@]4(C)[C@H](c5ccoc5)OC(=O)[C@H]5O[C@@]534)[C@@]12C | -5.4% | -3.3% | 13.7% | 1.3% | 13.7% | 4.3% | 11.9% | 17.7% | 11.9% | 24.4% |
| C[C@@H]1C[C@H]2[C@@H]3CCC4=CC(=O)C=C[C@]4(C)[C@@]3(F)[C@@H](O)C[C@]2(C)[C@@]1(O)C(=O)CO | -11% | -41% | -45.3% | -22.2% | -8.2% | 98.8% | 94.9% | 109% | 100% | 82.9% |
| CCN1CCN(C(=O)N[C@@H](C(=O)N[C@@H]2C(=O)N3[C@@H]2SC(C)(C)[C@@H]3C(=O)O)c2ccccc2)C(=O)C1=O | -10.4% | 0.3% | -22.3% | -2.6% | 44.7% | 143% | 136% | 156% | 113% | 116% |
| CCCCCCc1ccc(O)cc1O | 14.5% | 10.5% | -4.2% | 13.5% | 35.6% | 90.7% | 119% | 71.8% | 97.2% | 59.1% |
| CC=CC(=O)N(CC)c1ccccc1C | -21.6% | 16.2% | -5.1% | -7.8% | -1.7% | 93.2% | 110% | 90.3% | 96% | 88.8% |
| C#CC1(O)CC[C@H]2[C@@H]3CCC4=CC(=O)CC[C@@H]4[C@H]3CC[C@@]21CC (mixture of isomers) | -14.1% | -2.1% | -16.5% | -2.3% | 1.1% | 122% | 104% | 106% | 95% | 104% |
| CN(C)CCCOc1nn(Cc2ccccc2)c2ccccc12 | -24.3% | 9.3% | -6.1% | 2.6% | -2.6% | 100% | 100% | 79% | 99.1% | 93.1% |
| CC(=O)O[C@H]1CC[C@]2(C)C(C[C@@H](OC(C)=O)[C@]3(C)C4=CC(=O)O[C@H](c5ccoc5)[C@@]4(C)CCC23)C1(C)C (stereo partly drawn) [3-DEOXO-3beta-ACETOXYDEOXYDIHYDROGEDUNIN] | -8.3% | -2% | 26.7% | -5.8% | 1.1% | 122% | 92.8% | 139% | 97.7% | 78.2% |

| Compound | loss of total cells (Human fetal astrocytes [1]; 1.39 µM) | loss of total cells (Human fetal astrocytes [1]; 2.78 µM) | loss of total cells (Human fetal astrocytes [1]; 5.56 µM) | loss of total cells (Human fetal astrocytes [1]; 11.11 µM) | loss of total cells (Human fetal astrocytes [1]; 22.22 µM) | synaptosome phagocytosis (Human fetal astrocytes [2]; 1.39 µM) | synaptosome phagocytosis (Human fetal astrocytes [2]; 2.78 µM) | synaptosome phagocytosis (Human fetal astrocytes [2]; 5.56 µM) | synaptosome phagocytosis (Human fetal astrocytes [2]; 11.11 µM) | synaptosome phagocytosis (Human fetal astrocytes [2]; 22.22 µM) |
| --- | --- | --- | --- | --- | --- | --- | --- | --- | --- | --- |
| CCCCS(=N)(=O)CCC(N)C(=O)O (racemic) [DL-Buthionine-[S,R]-sulfoximine] | -14.8% | -14.8% | -3.7% | 18.2% | 12.6% | 82.2% | 120% | 92.5% | 60.5% | 137% |
| NCC(O)CC(=O)O (stereo not given) | 9.7% | 6.9% | 1.4% | 2.1% | 25% | 94.7% | 93.6% | 82.1% | 90.3% | 64.4% |
| CC(=O)N[C@@H](CC(=O)N[C@@H](CCC(=O)O)C(=O)O)C(=O)O | 6.9% | 14.1% | 8.7% | 13% | 19.7% | 109% | 112% | 106% | 112% | 112% |
| C[C@H](CCC(=O)O)[C@H]1CC[C@H]2[C@@H]3CC[C@@H]4C[C@H](O)CC[C@]4(C)[C@H]3CC[C@]12C [Lithocholic acid 5.beta.-Cholan-24-oic acid-3.alpha.-ol] | -3.2% | 3.2% | 7.2% | -3.8% | 1.5% | 47.6% | 99.2% | 93.8% | 98.3% | 94.7% |
| O=C(O)/C=C(/CC(=O)O)C(=O)O | -20.5% | -11.2% | -1.5% | 14.2% | 18.5% | 104% | 98.6% | 89.3% | 117% | 113% |
| OC(CCN1CCCCC1)(c1ccccc1)c1ccccc1 | 15.5% | 9% | 18.1% | -1.3% | 25% | 79.9% | 66.4% | 117% | 86% | 85.2% |
| C[C@H](N)CO | -19.7% | 11.9% | -6.6% | 0% | -3.7% | 89.2% | 114% | 94.2% | 106% | 116% |
| O=c1cc(-c2ccccc2O)oc2cc(O)ccc12 | -18.9% | -1.8% | -6.6% | -3.4% | 4.4% | 107% | 94% | 97.5% | 102% | 112% |
| N[C@H]1C(O)O[C@H](CO)[C@@H](O)[C@@H]1O (stereo not given in full) | 5% | -16.6% | 3.5% | -0.9% | 21% | 129% | 116% | 140% | 114% | 120% |
| CCN(CC)CCOC(=O)C(Cc1cccc2ccccc12)CC1CCCO1 (stereo not given) | -34.7% | -34.9% | 0.6% | 29.8% | 0.3% | 98.4% | 104% | 112% | 117% | 125% |
| Nc1ccc(/N=N/c2ccccc2)c(N)n1 | 0.8% | -4.6% | 14.7% | 16.4% | 18.7% | 110% | 102% | 94.5% | 42.3% | 46.5% |
| CC1=C(CCC(=O)O)c2cc3nc(cc4[nH]c(cc5[nH]c(cc1n2)c(C)c5C(C)O)c(C)c4C(C)O)C(C)=C3CCC(=O)O (stereo not given) | -0.4% | 14% | 25.2% | 13.5% | 9.3% | 149% | 125% | 128% | 102% | 104% |
| OC[C@H]1O[C@@H](OCCc2ccc(O)cc2)[C@H](O)[C@@H](O)[C@@H]1O | -3.3% | -4.7% | -8.8% | 29.1% | 14.8% | 115% | 105% | 127% | 114% | 138% |
| CCN1CCN(c2cc3c(cc2F)c(=O)c(C(=O)O)cn3C2CC2)CC1 | 9.8% | 10.6% | 23.7% | 51.6% | -5.6% | 70.9% | 106% | 125% | 142% | 120% |
| COc1cc(O)c(C(C)=O)c(OC)c1 | -14.1% | 12% | -19.1% | -0.6% | -15.9% | 87.6% | 100% | 105% | 96.9% | 96.9% |
| COc1cc(O)c(C)c(O)c1 | 24.9% | 21.3% | 14.5% | -2.9% | 4.5% | 115% | 108% | 89.3% | 119% | 126% |
| COc1ccc2c(c1)OCC(Cc1ccc(OC)c(O)c1)C2=O (stereo not given) | 1.1% | 9.3% | -10.7% | 41.3% | -8.5% | 131% | 127% | 55.5% | 92.8% | 93.9% |
| CC(=O)NS(=O)(=O)c1ccc(N)cc1 | 6.2% | -24.1% | -15.3% | -7.8% | 24.6% | 118% | 128% | 110% | 108% | 125% |
| O=c1c(O)cccc2cc(O)c(O)c(O)c12 | 9.7% | 9.7% | 15.2% | 10.5% | 32.6% | 87.5% | 90.3% | 91.9% | 83.1% | 105% |
| COc1ccc(-c2cc(=O)c3c(O)cc(O[C@@H]4O[C@H](CO[C@@H]5O[C@@H](C)[C@H](O)[C@@H](O)[C@H]5O)[C@@H](O)[C@H](O)[C@H]4O)cc3o2)cc1O | 10.5% | 6.9% | 16.7% | 13.8% | -16.7% | 76.5% | 99.4% | 103% | 132% | 110% |
| COc1ccc([C@@H]2Sc3ccccc3N(CCN(C)C)C(=O)[C@@H]2OC(C)=O)cc1 | -4% | 11.3% | -13.7% | 29% | -11.5% | 121% | 70.4% | 67.3% | 110% | 70.9% |

Single records, as listed above. Order of values: loss of total cells (Human fetal astrocytes [1]; 1.39 µM) | loss of total cells (Human fetal astrocytes [1]; 2.78 µM) | loss of total cells (Human fetal astrocytes [1]; 5.56 µM) | loss of total cells (Human fetal astrocytes [1]; 11.11 µM) | loss of total cells (Human fetal astrocytes [1]; 22.22 µM) | synaptosome phagocytosis (Human fetal astrocytes [2]; 1.39 µM) | synaptosome phagocytosis (Human fetal astrocytes [2]; 2.78 µM) | synaptosome phagocytosis (Human fetal astrocytes [2]; 5.56 µM) | synaptosome phagocytosis (Human fetal astrocytes [2]; 11.11 µM) | synaptosome phagocytosis (Human fetal astrocytes [2]; 22.22 µM)
`COc1cc(O)c(C(C)=O)c(OC)c1` in the list: -14.1% | 12% | -19.1% | -0.6% | -15.9% | 87.6% | 100% | 105% | 96.9% | 96.9%
`O=C(O)[C@H]1/C(=C/CO)O[C@@H]2CC(=O)N21` in the list: -28.2% | -30.2% | 11.8% | 23.9% | 2.8% | 87.4% | 111% | 123% | 107% | 103%
